PubChem BioAssay AID652259 | Drosophila RNAi Screening Center – 2013
Test: 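Genome-wide hunt for genes that control Wingless pathway activity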 (primary screen). Cells: Drosophila clone 8 imaginal disc epithelial cells. Reagent: long dsRNA against Drosophila genes. Challenge: pathway stimulated by co-transfected Wingless expression plasmid. Detection: 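Firefly luciferase from a tcf-site Wingless reporter, measured alongside co-transfected Renilla luciferase that tracks transfection; pathway stimulated by a Wingless plasmid; the firefly-to-Renilla ratio is not deposited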. Scale: firefly reporter light: higher = more Wg reporter light, before normalisation; Renilla control light: higher = more transfected or surviving cells. Call rule: 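a knock-down is a candidate when at least two out of four statistical tests show it departing from its plate mean; one test alone signals a weak candidate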. Meaning of the calls: active = candidate regulator (raises or lowers reporter); inactive = not a candidate.
The screen tested about 22,000 reagents; below is a random part of those with a known target gene and a result. Over the whole deposit, 233 (1.1%) are marked active. 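Light values are raw, unnormalised plate reads; the ratio scores behind the reporter calls were not deposited.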 Reagents against one gene are numbered here. Reagent sequences are not shown. The record does not give: the amount of reagent, the time to read-out, the dose of the treatment.

The first 3 records, ahead of the listing:
gene | reagent no. | firefly reporter light, replicate 1 | firefly reporter light, replicate 2 | Renilla control light, replicate 1 | Renilla control light, replicate 2 | activity call
eIF3l (eukaryotic translation initiation factor 3 subunit l) | 1 | 9888 | – | 2656 | – | inactive
CG12984 | 1 | 10858 | – | 4881 | – | inactive
CIA30 (Complex I intermediate-associated protein, 30 kDa) | 1 | 2769 | 6069 | 1448 | 2781 | inactive

The list itself, repeating the preview:
gene | reagent no. | firefly reporter light, replicate 1 | firefly reporter light, replicate 2 | Renilla control light, replicate 1 | Renilla control light, replicate 2 | activity call
eIF3l (eukaryotic translation initiation factor 3 subunit l) | 1 | 9888 | – | 2656 | – | inactive
CG12984 | 1 | 10858 | – | 4881 | – | inactive
CIA30 (Complex I intermediate-associated protein, 30 kDa) | 1 | 2769 | 6069 | 1448 | 2781 | inactive
bif (bifocal) | 1 | 3381 | – | 966 | – | inactive
bif (bifocal) | 2 | 1675 | 4465 | 753 | 2242 | inactive
CG14565 | 1 | 18003 | – | 6172 | – | inactive
CG10283 | 1 | 7931 | – | 3074 | – | inactive
CG3777 | 1 | 4217 | – | 791 | – | inactive
Gyg (Glycogenin) | 1 | 15814 | – | 7830 | – | inactive
Gyg (Glycogenin) | 2 | 3700 | 5750 | 907 | 2509 | inactive
eIF2Bgamma (eukaryotic translation initiation factor 2B subunit gamma) | 1 | 16365 | – | 5512 | – | inactive
CG42853 | 1 | 3483 | – | 1402 | – | inactive
CG33124 | 1 | 1992 | 4070 | 874 | 1869 | inactive
Lcp65Ad | 1 | 1323 | 8644 | 1056 | 3768 | inactive
spirit (Serine Protease Immune Response Integrator) | 1 | 3467 | 4178 | 1192 | 1609 | inactive
Ugt37A1 (UDP-glycosyltransferase family 37 member A1) | 1 | 5157 | 5968 | 909 | 2652 | inactive
CG31789 | 1 | 15131 | – | 6135 | – | inactive
CHES-1-like (Checkpoint suppressor 1-like) | 1 | 16129 | – | 9155 | – | inactive
RNF220 (ring finger protein 220) | 1 | 4213 | 8739 | 1449 | 2488 | inactive
LSm1 (Like Sm 1) | 1 | 4125 | 10534 | 1337 | 4176 | inactive
Cib2 (Calcium and integrin binding family member 2) | 1 | 2330 | 8919 | 858 | 2784 | inactive
Cyp40 (Cyclophilin 40) | 1 | 3683 | – | 1920 | – | inactive
Alp2 (Alkaline phosphatase 2) | 1 | 3440 | 9093 | 954 | 3652 | inactive
Dg (Dystroglycan) | 1 | 6701 | – | 1801 | – | inactive
BobA | 1 | 7597 | – | 2832 | – | inactive
Mat89Ba (Maternal transcript 89Ba) | 1 | 2744 | 5515 | 1421 | 1957 | inactive
CG32170 | 1 | 2950 | – | 1690 | – | inactive
qless | 1 | 7000 | – | 2992 | – | inactive
qless | 2 | 6896 | – | 2864 | – | inactive
